Results are given in words; binding and its absence hold for the method and conditions named. Binding can be weak; no strength is given.
Molecular target: GST-PIN1CL (cytosolic loop of PIN1 fused to GST) (Arabidopsis thaliana) (UniProt Q9C6B8)
Assay: pull-down; GST-PIN1CL on glutathione sepharose beads; purified His6-RBD-µ2-adaptin pre-incubated 1 h at RT without or with 10 µM NAA, 2,4-D, 2-NAA or BA, then 2 h at RT with the beads; binding buffer 100 mM Tris-HCl pH 7.5, 5 mM EDTA, 0.1% Triton X-100; Western blot with a His antibody; both purified

Chains of the proteins cited; added tags and fusions are not shown. Lines headed by an entry give the natural chain unless they say otherwise; changes in a name come on top.
UniProt Q9C6B8: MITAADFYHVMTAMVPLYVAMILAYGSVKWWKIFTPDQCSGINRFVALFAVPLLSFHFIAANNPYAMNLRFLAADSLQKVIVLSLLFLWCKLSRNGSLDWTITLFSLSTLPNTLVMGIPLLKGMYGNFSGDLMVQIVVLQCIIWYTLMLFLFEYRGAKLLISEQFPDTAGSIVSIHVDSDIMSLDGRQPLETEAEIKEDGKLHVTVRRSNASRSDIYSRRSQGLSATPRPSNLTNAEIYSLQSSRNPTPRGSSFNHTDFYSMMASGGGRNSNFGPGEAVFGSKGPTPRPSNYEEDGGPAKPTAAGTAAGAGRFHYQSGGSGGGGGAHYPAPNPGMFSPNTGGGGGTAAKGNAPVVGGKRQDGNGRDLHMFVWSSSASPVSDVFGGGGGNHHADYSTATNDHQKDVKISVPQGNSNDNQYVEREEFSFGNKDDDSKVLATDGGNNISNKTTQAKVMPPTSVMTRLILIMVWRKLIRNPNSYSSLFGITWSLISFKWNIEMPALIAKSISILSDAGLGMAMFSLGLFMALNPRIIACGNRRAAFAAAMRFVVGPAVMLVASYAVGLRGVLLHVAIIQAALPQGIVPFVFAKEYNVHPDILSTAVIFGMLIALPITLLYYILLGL
UniProt O23140: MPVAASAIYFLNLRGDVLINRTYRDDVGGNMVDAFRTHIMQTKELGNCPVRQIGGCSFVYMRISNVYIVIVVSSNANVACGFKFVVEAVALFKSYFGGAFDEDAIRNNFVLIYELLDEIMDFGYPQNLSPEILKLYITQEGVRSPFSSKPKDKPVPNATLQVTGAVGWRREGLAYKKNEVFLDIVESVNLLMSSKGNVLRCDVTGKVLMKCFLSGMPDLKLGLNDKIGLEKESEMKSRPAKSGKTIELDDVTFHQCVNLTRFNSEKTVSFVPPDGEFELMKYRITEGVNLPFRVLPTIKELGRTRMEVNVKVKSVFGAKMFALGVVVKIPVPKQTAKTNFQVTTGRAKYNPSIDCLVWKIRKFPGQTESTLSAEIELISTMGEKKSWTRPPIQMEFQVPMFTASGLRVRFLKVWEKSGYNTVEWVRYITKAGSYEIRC

binding: binds
Substance: (His)6×-RBD-µ2-adaptin (receptor binding domain of Arabidopsis µ2-adaptin) (from UniProt O23140) (domain or fragment)

Source: publication PMC8195513
